The target in this experiment is CtBP2-(1-445)-FLAG (human) (UniProt P56545). Kind of experiment: co-IP; HEK293T co-transfected with CtBP2-FLAG and Myc-tagged G9a or GLP; anti-FLAG resin, FLAG peptide elution, Western blot. A general note: A western blot detects proteins with antibodies after separation by electrophoresis.

Sequences of proteins named here, by UniProt entry; tags and fusion partners are left off. A change or cut given only in a name is not applied to a line headed by its entry.
UniProt Q9H9B1: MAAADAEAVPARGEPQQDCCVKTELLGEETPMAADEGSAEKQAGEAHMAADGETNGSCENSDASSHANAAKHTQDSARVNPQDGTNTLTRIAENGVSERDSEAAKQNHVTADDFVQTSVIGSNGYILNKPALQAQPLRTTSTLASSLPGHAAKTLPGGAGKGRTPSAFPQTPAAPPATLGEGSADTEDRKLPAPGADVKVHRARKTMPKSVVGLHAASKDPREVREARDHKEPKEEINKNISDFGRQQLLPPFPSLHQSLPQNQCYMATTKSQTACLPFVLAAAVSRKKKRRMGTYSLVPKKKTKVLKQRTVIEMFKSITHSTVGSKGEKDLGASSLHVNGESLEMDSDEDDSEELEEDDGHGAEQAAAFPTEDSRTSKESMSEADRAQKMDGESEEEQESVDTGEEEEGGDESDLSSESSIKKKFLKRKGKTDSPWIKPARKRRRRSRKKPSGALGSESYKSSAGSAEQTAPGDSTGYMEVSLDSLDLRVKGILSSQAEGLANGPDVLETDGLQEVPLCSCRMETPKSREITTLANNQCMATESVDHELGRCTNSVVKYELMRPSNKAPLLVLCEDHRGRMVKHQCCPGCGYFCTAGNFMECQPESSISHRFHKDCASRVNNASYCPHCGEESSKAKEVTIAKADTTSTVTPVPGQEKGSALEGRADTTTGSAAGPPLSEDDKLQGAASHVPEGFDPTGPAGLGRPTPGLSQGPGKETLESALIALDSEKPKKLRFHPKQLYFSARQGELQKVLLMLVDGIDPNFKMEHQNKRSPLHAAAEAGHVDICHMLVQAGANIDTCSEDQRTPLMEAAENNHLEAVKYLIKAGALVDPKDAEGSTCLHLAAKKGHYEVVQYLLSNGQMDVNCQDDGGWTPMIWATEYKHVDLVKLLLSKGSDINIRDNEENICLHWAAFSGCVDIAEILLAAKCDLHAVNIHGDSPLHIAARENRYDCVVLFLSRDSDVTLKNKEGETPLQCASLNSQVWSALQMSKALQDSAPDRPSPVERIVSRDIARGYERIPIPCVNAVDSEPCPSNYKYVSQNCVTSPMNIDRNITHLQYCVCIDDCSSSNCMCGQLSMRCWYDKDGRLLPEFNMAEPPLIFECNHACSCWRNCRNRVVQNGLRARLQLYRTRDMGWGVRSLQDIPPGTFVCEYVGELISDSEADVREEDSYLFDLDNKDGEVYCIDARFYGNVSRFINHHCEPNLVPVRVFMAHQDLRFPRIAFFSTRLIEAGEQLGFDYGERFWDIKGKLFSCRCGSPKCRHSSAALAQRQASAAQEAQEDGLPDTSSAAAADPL

Results are given in words; binding and its absence hold for the method and conditions named. Binding seen in cells or lysates may run through a third protein. Binding can be weak; no strength is given.

Consider “GLP-(1-1298)^ΔPre-SET-Myc (from UniProt Q9H9B1)”, for which the binding entry was “binds”.

Values taken from article PMC12809078.
